Measured values as given in the supplement of paper PMC10849652.
The other results are listed elsewhere or left out.

Chains of the proteins cited; added tags and fusions are not shown. Lines headed by an entry give the natural chain unless they say otherwise; changes in a name come on top.
UniProt P20020: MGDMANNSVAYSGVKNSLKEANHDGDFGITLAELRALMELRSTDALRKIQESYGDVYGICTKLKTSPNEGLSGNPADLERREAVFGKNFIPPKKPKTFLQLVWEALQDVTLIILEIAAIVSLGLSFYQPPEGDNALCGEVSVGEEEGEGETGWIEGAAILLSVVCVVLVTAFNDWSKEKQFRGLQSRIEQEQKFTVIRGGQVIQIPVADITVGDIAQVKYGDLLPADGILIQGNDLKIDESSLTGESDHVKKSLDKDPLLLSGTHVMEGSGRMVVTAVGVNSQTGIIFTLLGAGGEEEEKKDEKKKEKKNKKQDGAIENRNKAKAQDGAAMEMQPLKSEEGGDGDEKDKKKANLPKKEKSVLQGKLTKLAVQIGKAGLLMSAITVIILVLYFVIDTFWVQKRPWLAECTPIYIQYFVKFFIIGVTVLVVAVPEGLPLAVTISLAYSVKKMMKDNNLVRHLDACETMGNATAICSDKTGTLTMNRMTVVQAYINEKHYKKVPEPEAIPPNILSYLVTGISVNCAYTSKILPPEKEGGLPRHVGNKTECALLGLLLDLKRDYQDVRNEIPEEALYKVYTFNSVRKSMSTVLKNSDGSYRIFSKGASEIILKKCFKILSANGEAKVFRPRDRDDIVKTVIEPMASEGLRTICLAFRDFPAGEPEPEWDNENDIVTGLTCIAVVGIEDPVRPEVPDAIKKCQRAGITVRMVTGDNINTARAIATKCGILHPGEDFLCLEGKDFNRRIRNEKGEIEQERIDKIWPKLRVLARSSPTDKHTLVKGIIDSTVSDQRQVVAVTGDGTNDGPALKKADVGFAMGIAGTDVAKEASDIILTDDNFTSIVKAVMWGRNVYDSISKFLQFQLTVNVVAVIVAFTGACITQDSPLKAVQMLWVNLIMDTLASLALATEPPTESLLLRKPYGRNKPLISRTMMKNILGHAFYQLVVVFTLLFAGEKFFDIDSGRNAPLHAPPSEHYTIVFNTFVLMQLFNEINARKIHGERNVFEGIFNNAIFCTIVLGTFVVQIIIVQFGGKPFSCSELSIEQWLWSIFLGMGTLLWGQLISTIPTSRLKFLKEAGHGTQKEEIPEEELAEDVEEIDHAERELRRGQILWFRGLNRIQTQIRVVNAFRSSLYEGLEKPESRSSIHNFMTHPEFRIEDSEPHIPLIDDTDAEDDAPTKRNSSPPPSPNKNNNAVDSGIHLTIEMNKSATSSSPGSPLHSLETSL
UniProt P18847: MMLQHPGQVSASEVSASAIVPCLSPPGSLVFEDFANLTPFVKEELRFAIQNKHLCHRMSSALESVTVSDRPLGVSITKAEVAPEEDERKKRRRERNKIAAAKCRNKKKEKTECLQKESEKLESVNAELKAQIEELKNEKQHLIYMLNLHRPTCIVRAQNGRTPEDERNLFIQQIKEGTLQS
UniProt O95260: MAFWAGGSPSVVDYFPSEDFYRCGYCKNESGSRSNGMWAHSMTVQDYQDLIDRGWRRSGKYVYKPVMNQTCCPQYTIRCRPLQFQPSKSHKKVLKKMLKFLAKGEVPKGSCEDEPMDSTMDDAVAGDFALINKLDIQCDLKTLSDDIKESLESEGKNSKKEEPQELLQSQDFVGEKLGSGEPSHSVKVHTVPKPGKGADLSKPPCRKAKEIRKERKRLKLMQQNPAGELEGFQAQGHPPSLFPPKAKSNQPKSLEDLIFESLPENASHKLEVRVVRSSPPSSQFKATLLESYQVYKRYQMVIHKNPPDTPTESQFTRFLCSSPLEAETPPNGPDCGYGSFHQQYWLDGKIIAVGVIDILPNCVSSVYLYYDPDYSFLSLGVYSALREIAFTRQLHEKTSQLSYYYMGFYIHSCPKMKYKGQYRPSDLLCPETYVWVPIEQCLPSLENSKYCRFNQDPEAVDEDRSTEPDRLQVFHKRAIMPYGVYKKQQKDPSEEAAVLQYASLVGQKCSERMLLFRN
UniProt Q9BPX5, whole entry, looked up: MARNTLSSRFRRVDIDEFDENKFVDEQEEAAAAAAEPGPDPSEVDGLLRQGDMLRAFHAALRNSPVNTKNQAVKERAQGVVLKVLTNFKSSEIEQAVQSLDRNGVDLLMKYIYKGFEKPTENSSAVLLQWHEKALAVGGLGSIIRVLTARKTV
UniProt Q96IX5: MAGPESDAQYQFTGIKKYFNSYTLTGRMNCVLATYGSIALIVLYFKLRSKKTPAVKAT
UniProt Q6NXE6: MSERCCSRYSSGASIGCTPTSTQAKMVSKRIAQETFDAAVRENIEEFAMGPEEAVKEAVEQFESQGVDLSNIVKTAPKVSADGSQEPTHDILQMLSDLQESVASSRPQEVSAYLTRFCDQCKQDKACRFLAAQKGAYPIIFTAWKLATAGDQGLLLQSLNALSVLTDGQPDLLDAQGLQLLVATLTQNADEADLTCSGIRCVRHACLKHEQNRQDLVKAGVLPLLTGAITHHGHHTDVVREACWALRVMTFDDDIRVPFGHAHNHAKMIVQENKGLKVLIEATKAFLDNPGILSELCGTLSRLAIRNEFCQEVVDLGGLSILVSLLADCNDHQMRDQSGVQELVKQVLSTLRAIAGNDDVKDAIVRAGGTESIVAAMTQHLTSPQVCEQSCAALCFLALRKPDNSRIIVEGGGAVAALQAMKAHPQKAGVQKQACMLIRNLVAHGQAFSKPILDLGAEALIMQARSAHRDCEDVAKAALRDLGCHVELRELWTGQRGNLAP
UniProt P06576, whole entry, looked up: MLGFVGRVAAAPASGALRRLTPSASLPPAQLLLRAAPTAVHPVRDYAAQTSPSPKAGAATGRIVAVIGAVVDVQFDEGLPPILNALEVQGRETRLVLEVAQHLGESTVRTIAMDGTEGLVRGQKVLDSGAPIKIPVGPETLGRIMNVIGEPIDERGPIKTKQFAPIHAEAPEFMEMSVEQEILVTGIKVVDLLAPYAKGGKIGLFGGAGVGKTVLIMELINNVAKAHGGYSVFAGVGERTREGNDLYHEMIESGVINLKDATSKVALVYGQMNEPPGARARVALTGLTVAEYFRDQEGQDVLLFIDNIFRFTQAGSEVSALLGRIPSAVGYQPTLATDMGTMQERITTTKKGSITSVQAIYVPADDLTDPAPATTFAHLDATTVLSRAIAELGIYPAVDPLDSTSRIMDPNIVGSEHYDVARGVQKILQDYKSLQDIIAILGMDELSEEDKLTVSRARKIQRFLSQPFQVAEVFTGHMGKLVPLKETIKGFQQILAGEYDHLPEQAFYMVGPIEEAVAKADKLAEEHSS
UniProt O95352: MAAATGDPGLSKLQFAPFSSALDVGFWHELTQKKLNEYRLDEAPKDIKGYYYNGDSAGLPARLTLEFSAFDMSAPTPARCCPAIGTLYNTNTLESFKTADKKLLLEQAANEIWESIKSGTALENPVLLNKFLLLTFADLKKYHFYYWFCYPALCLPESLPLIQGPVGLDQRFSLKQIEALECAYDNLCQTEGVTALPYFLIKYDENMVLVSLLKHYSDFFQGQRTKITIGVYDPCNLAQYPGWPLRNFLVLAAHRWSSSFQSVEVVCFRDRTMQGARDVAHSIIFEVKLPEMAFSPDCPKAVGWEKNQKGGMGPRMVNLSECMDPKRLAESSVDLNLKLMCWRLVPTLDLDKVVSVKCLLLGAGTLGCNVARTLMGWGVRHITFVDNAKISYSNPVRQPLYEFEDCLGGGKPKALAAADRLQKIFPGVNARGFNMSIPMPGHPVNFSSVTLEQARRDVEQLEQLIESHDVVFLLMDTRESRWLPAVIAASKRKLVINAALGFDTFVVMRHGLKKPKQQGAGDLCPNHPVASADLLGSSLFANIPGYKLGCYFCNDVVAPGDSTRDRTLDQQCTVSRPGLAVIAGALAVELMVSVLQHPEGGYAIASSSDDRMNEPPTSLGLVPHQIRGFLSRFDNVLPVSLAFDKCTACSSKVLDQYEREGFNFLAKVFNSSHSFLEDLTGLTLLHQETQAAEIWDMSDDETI
UniProt P38606, whole entry, looked up: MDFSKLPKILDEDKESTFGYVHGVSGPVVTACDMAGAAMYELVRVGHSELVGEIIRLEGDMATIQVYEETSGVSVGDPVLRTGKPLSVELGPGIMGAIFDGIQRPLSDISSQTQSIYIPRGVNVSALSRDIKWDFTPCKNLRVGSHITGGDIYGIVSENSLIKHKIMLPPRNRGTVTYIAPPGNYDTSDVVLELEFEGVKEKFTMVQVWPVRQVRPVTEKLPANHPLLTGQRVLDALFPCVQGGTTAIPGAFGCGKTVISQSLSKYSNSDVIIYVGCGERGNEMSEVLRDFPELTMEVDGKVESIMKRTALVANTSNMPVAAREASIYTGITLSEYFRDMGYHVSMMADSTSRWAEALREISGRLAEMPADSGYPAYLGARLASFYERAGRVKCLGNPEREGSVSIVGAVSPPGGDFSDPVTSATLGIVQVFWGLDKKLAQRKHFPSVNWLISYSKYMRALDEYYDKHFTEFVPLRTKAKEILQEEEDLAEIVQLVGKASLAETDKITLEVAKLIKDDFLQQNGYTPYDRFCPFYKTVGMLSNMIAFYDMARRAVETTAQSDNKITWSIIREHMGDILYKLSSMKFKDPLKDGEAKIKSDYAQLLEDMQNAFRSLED
UniProt O94817, whole entry, looked up: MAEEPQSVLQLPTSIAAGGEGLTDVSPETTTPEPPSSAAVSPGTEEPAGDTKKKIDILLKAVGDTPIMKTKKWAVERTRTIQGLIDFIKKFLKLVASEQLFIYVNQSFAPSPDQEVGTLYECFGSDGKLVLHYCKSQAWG
UniProt Q9H1Y0: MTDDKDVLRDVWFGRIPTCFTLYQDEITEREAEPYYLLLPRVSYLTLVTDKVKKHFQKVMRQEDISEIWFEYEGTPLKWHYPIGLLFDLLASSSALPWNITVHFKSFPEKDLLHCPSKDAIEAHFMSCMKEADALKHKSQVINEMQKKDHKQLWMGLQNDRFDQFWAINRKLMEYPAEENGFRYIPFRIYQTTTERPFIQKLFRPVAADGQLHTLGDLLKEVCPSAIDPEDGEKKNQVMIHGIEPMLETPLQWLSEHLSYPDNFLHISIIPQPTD
UniProt Q15041, whole entry, looked up: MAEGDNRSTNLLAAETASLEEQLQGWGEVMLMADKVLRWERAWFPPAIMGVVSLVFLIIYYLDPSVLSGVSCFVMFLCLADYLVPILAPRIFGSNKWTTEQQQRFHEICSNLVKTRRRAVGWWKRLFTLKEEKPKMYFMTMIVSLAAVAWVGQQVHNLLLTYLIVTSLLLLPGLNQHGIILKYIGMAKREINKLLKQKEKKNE
UniProt Q9NT62, whole entry, looked up: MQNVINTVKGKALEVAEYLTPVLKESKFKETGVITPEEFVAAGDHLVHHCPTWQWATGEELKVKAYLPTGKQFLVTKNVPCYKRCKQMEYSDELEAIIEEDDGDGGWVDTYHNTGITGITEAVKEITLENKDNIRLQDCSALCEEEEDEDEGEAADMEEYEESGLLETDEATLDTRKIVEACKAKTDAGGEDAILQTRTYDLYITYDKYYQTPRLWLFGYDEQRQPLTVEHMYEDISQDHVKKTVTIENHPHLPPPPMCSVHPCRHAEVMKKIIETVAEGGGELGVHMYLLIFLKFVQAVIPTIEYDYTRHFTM
UniProt Q9BZE9, whole entry, looked up: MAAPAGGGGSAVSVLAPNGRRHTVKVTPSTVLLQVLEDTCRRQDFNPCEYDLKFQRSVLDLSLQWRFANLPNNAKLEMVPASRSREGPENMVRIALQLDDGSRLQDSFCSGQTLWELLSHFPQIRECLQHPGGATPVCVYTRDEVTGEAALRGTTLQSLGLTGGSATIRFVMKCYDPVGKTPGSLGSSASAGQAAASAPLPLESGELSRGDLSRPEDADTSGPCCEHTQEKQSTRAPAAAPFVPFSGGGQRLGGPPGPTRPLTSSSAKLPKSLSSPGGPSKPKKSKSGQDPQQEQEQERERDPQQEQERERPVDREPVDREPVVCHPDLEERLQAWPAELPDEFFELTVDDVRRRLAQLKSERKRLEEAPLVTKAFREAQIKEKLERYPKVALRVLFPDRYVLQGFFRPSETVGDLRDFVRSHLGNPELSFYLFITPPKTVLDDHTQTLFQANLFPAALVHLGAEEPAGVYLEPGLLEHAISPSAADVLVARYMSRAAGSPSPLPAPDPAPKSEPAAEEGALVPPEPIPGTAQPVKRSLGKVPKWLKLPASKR
UniProt O95376: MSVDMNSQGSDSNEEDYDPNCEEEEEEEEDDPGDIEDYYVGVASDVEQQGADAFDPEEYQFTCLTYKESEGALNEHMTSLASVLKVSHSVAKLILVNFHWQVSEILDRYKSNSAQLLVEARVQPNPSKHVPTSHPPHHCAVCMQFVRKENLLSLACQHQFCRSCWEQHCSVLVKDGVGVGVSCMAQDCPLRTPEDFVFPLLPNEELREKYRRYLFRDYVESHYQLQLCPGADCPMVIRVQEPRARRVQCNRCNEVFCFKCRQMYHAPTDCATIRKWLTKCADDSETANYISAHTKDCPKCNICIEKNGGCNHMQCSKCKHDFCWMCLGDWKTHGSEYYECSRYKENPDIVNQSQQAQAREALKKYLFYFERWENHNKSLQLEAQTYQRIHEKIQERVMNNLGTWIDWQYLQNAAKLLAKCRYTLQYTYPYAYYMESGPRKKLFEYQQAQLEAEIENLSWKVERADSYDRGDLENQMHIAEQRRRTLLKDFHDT

The targets below were run with c1cn2cc(-c3ccc4cn[nH]c4c3)nc(Nc3ccc(N4CCOCC4)cc3)c2n1 [entospletinib] (assay: log2 fold change, soluble protein after heating vs DMSO (PISA); higher = thermal stabilisation; K562 cells, 10 uM, 30 min; active = over 0.2 and 3.5 SD of the protein, either way, in both replicates (recomputed)).
How it was run: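 For each measurement, 10 μM compound was applied for 30 min to K562 cells at 2×10^6 cells/mL. Aliquots were heated for 3 min across 48°C-58°C, pooled, and extracted in PBS with 0.5% NP-40 at 4°C; the supernatant after 21,000xg for 90 min was soluble protein. This was quantified by TMTpro 16plex LC-MS/MS with channel sums equalised, and thermal stability was reported relative to control samples from duplicates, on a log2 fold-change scale.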

log2 fold change, inactive:
ATP2B1 isoform 1 (UniProt P20020) -0.013, ATG2A isoform 3 (UniProt Q2TAZ0) -0.04, ASAP1 isoform 2 (UniProt Q9ULH1) 0.031, ATP5PO (UniProt P48047) 0.076, ATP11B (UniProt Q9Y2G3) 0.019, ATF3 (UniProt P18847) -0.357, ATE1 isoform 2 (UniProt O95260) 0.104, ARPC5L (UniProt Q9BPX5) -0.053, ATP5MD (UniProt Q96IX5) 0.228, ARMC6 (UniProt Q6NXE6) 0.175, ATP5F1B (UniProt P06576) 0.028, ATG4C (UniProt Q96DT6) 0.134, ATG7 (UniProt O95352) -0.01, ATN1 (UniProt P54259) -0.015, ATP6V1A (UniProt P38606) -0.019, ATG12 (UniProt O94817) 0.044, ATG5 (UniProt Q9H1Y0) 0.005, ARL6IP1 (UniProt Q15041) 0.046, ATG3 (UniProt Q9NT62) 0, ASPSCR1 isoform 2 (UniProt Q9BZE9) 0.005, ARIH2 (UniProt O95376) -0.018, ASAH1 isoform 2 (UniProt Q13510) -0.011
